Paper PMC9105187
No constants are given. Whether binding was seen depends on the method and setting. In cells and extracts the contact can be indirect. A yes stands for co-enrichment or nearness to the bait. Other partners may have been found.

Protein sequences, listed by entry. Tags and fused reporters are not part of them.
UniProt Q12983: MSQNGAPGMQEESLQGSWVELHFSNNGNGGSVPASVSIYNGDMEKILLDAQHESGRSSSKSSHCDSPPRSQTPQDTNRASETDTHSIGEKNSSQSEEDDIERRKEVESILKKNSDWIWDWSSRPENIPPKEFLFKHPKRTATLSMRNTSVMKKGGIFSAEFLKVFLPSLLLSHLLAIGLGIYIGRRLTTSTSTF

B1: SAMM50 (human) (protein, UniProt Q9Y512 1-469)
chain: MGTVHARSLEPLPSSGPDFGGLGEEAEFVEVEPEAKQEILENKDVVVQHVHFDGLGRTKDDIIICEIGDVFKAKNLIEVMRKSHEAREKLLRLGIFRQVDVLIDTCQGDDALPNGLDVTFEVTELRRLTGSYNTMVGNNEGSMVLGLKLPNLLGRAEKVTFQFSYGTKETSYGLSFFKPRPGNFERNFSVNLYKVTGQFPWSSLRETDRGMSAEYSFPIWKTSHTVKWEGVWRELGCLSRTASFAVRKESGHSLKSSLSHAMVIDSRNSSILPRRGALLKVNQELAGYTGGDVSFIKEDFELQLNKQLIFDSVFSASFWGGMLVPIGDKPSSIADRFYLGGPTSIRGFSMHSIGPQSEGDYLGGEAYWAGGLHLYTPLPFRPGQGGFGELFRTHFFLNAGNLCNLNYGEGPKAHIRKLAECIRWSYGAGIVLRLGNIARLELNYCVPMGVQTGDRICDGVQFGAGIRFL
B2: mt-Lon protease homolog (human) (protein, UniProt P36776 68-959)
chain: FWEASSRGGGAFSGGEDASEGGAEEGAGGAGGSAGAGEGPVITALTPMTIPDVFPHLPLIAITRNPVFPRFIKIIEVKNKKLVELLRRKVRLAQPYVGVFLKRDDSNESDVVESLDEIYHTGTFAQIHEMQDLGDKLRMIVMGHRRVHISRQLEVEPEEPEAENKHKPRRKSKRGKKEAEDELSARHPAELAMEPTPELPAEVLMVEVENVVHEDFQVTEEVKALTAEIVKTIRDIIALNPLYRESVLQMMQAGQRVVDNPIYLSDMGAALTGAESHELQDVLEETNIPKRLYKALSLLKKEFELSKLQQRLGREVEEKIKQTHRKYLLQEQLKIIKKELGLEKDDKDAIEEKFRERLKELVVPKHVMDVVDEELSKLGLLDNHSSEFNVTRNYLDWLTSIPWGKYSNENLDLARAQAVLEEDHYGMEDVKKRILEFIAVSQLRGSTQGKILCFYGPPGVGKTSIARSIARALNREYFRFSVGGMTDVAEIKGHRRTYVGAMPGKIIQCLKKTKTENPLILIDEVDKIGRGYQGDPSSALLELLDPEQNANFLDHYLDVPVDLSKVLFICTANVTDTIPEPLRDRMEMINVSGYVAQEKLAIAERYLVPQARALCGLDESKAKLSSDVLTLLIKQYCRESGVRNLQKQVEKVLRKSAYKIVSGEAESVEVTPENLQDFVGKPVFTVERMYDVTPPGVVMGLAWTAMGGSTLFVETSLRRPQDKDAKGDKDGSLEVTGQLGEVMKESARIAYTFARAFLMQHAPANDYLVTSHIHLHVPEGATPKDGPSAGCTIVTALLSLAMGRPVRQNLAMTGEVSLTGKILPVGGIKEKTIAAKRAGVTCIVLPAENKKDFYDLAAFITEGLEVHFVEHYREIFDIAFPDEQAEALAVER
B3: 28S ribosomal protein MRPS36 (human) (protein, UniProt P82909 1-103)
chain: MMGSKMASASRVVQVVKPHTPLIRFPDRRDNPKPNVSEALRSAGLPSHSSVISQHSKGSKSPDLLMYQGPPDTAEIIKTLPQKYRRKLVSQEEMEFIQRGGPE

molecular target: Bcl-2 nineteen kilodalton interacting protein 3 (human) (human (endogenous in LV myocardium)) (UniProt Q12983); assay: affinity purification with mass spectrometry; 500 ug lysate of human HFrEF LV myocardium (n = 3, taken at LVAD implantation) incubated with 10 ug mouse monoclonal BNIP3 antibody (Abcam ab10433); eluate on SDS-PAGE, in-gel trypsin digestion, nano-LC-MS/MS

| Binder | binding |
| --- | --- |
| B1 | binds |
| B2 | binds |
| B3 | binds |
